Measurements published in PMC7819943, “Rice protein-binding microarrays: a tool to detect cis-acting elements near promoter regions in rice”.
Some of the results follow.

Chains of the proteins cited; added tags and fusions are not shown.
UniProt Q0JBA9, entry or part of it: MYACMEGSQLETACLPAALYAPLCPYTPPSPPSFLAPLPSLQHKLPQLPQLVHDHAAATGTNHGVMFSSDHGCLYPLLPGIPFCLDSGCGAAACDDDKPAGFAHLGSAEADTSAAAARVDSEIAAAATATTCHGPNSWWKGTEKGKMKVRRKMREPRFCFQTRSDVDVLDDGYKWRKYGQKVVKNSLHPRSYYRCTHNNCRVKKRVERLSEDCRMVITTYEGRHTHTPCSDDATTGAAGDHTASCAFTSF

These sequences were tested against OsWRKY34 (Oryza sativa, UniProt Q0JBA9 1-250) (assay: protein-binding microarray (RPBM); PBS, 2% BSA, 51.3 ng/ul salmon testes DNA, 50 uM zinc acetate, 200 nM TF, 25 C, 1 h; high values mean tight binding). Settings: protein: recombinant; tags: N-terminal polyhistidine and DsRed monomer fusion (pET32a); label: CyDye5-dUTP incorporated in the synthesized complementary strand; 3' TTTTT single-stranded linker to array surface; dsDNA, one strand shown.
Summary of the method: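 Ni–NTA purification followed expression in E. coli BL21-CodonPlus of transcription factors fused N-terminally to a polyhistidine tag and DsRed. At 200 nM in PBS with 2% BSA, salmon testes DNA and 50 µM zinc acetate, the protein was incubated for 1 h at 25 °C with a custom Agilent array that had been primer-extended with Cy5-dUTP and blocked with 2% BSA. After washing, the array was read on an Axon 4000B scanner. The binding signal is per-feature fluorescence intensity in arbitrary units.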

Sequence	binding signal
TAATCTTTAAACGTTGGTCTGGTTGAGTCCTTAATTCACCCGGAGTCACCTAGTGCAG	8510 fluorescence intensity (a.u.)
TACATCCTCCGTTTCACAATGTAAGTCATTCTAGCATTTTCGGAGTCACCTAGTGCAG	10500 fluorescence intensity (a.u.)
TGCTCTGCCTTTTGCTCCTATAGCTTTTCTGAAAACATTGCGGAGTCACCTAGTGCAG	8130 fluorescence intensity (a.u.)
CGTTTGCTTAGTTACGTATCACTGCTATCTTTGTCCCATACGGAGTCACCTAGTGCAG	8170 fluorescence intensity (a.u.)
CTTATTTGTAGCTTCCTTTTTTTTTCCTTTTTCTTTTATTCGGAGTCACCTAGTGCAG	10400 fluorescence intensity (a.u.)
ACATCCACAACCATCTCCACCTCACCTCGTCCATCGTCTCCGGAGTCACCTAGTGCAG	8700 fluorescence intensity (a.u.)
TTTTTGTTTTCTCAATTCGCGAATTTAATGCTTTTGTGTACGGAGTCACCTAGTGCAG	9750 fluorescence intensity (a.u.)
CTAATACGTGGGTCTCACTATTGTCTTCTTGTTTGACTGACGGAGTCACCTAGTGCAG	10700 fluorescence intensity (a.u.)
CTCCAGCAGTAGTTCTTCTCGATCGACGAATCTATACACACGGAGTCACCTAGTGCAG	8160 fluorescence intensity (a.u.)
TACGCGTCCCAACCTGCTCCACTCCCTCGGCGCTGACCACCGGAGTCACCTAGTGCAG	11500 fluorescence intensity (a.u.)
ACCGCCGTGCTTTTCACCAGCTCACCGTGTTGCTCACCGACGGAGTCACCTAGTGCAG	10000 fluorescence intensity (a.u.)
GTTATAATCGATACGTTTGTTTTTTCTATCTACTTCTGGGCGGAGTCACCTAGTGCAG	8540 fluorescence intensity (a.u.)
ACTCTCCTCTCTCGTTTTCCGTGCGCACGCTTTTCAAACTCGGAGTCACCTAGTGCAG	8040 fluorescence intensity (a.u.)
GCTCCAGCGACTCCGTTCCGCTTCTGCTCCCCACATTTAACGGAGTCACCTAGTGCAG	9230 fluorescence intensity (a.u.)
AATCATTAACACATTATCAGTGTACTGCCTGCTGCCACTCCGGAGTCACCTAGTGCAG	9820 fluorescence intensity (a.u.)
TTGTTGTAGTAGCTGCTGTGCTGTATGGTGGTAGCCAGTGCGGAGTCACCTAGTGCAG	9070 fluorescence intensity (a.u.)
GCTGCCTTCGCATCCCACGCTGTCGCCGCTGCAGCCGCCTCGGAGTCACCTAGTGCAG	9740 fluorescence intensity (a.u.)
GTTTGGATCGTTCTGTCTGTTATGCCCGTGATCTTTTCAGCGGAGTCACCTAGTGCAG	8360 fluorescence intensity (a.u.)
GCCGTCCGCCGGCCGCCGTCTCCAGCCACAGATCGCCCCTCGGAGTCACCTAGTGCAG	8580 fluorescence intensity (a.u.)
CCTCGTGCCATCTCGCGGCTGAACAGGGGAGGGGATCCTGCGGAGTCACCTAGTGCAG	8810 fluorescence intensity (a.u.)
GGTTTCGAGTAGGTATAGGCCTTGTGCAGCATTTGGTCAACGGAGTCACCTAGTGCAG	8570 fluorescence intensity (a.u.)

Sequence	binding signal
GCGTCCCTACCTCGCACTCGCGCAGTCTCTCCAAACCCTTCGGAGTCACCTAGTGCAG	9080 fluorescence intensity (a.u.)
TTTTAAGCATCCAAACTGCGGTCATATGGCCATTTTTGATCGGAGTCACCTAGTGCAG	8910 fluorescence intensity (a.u.)
ACTACTTATTGTTATTGGCTTGTTACATCATTCGGTGCTCCGGAGTCACCTAGTGCAG	9730 fluorescence intensity (a.u.)
CGGTGGCCTCACCCTGCTGTTTCACTTTCACCTCGCCGTCCGGAGTCACCTAGTGCAG	8880 fluorescence intensity (a.u.)
TCATCAAAAGTTGGTTTAGGTCCCATTCGTTTATCCAACACGGAGTCACCTAGTGCAG	9220 fluorescence intensity (a.u.)
CGCGCGGACACGCCCCGTTCTCTCCAATCCAACCACTTAACGGAGTCACCTAGTGCAG	8050 fluorescence intensity (a.u.)
TTGTGTCTGTTTTCGTGTGCTTTATCCAAATAGTCACTCACGGAGTCACCTAGTGCAG	9560 fluorescence intensity (a.u.)
GTTTTGACCCCGCGGTTTTGACTCCGGTTTTATCCCACGTCGGAGTCACCTAGTGCAG	10900 fluorescence intensity (a.u.)
GATCCCTTGTTTGATATGTGTACTCCAGTGTTAACTTACCCGGAGTCACCTAGTGCAG	9060 fluorescence intensity (a.u.)
GGGATATCTCGCCCCTTTTTCTAGTATTTTTTTTTCTTTTCGGAGTCACCTAGTGCAG	11700 fluorescence intensity (a.u.)
ATTTTCACCCTCTGGGTTGCTTATTGATCATACGATCCTTCGGAGTCACCTAGTGCAG	9580 fluorescence intensity (a.u.)
AGCACCACTCATCCAGCTTCCAGCCGCCTTCGCGCACCACCGGAGTCACCTAGTGCAG	10900 fluorescence intensity (a.u.)
ATAATCTTTGTCTTTTGTTTGCTTGATATCGTACTACGTGCGGAGTCACCTAGTGCAG	8440 fluorescence intensity (a.u.)
GTTTTGCGTATCTTCTTAATCTCTTCTTGGCTTCTCTCAACGGAGTCACCTAGTGCAG	11600 fluorescence intensity (a.u.)
GTGGTTATTCAATTTGTTGCTTGTTTTTGTTTCAAGTTGGCGGAGTCACCTAGTGCAG	10700 fluorescence intensity (a.u.)
ATTCCTTTCTGTAATCTAATCCGGACGCTGTTGTTGTGACCGGAGTCACCTAGTGCAG	10300 fluorescence intensity (a.u.)
TTTTTTAATTCCGCATTTCATTCTTTTCTAAATTATATTCCGGAGTCACCTAGTGCAG	11900 fluorescence intensity (a.u.)
TCAGGTTGACTTTGGTCAAAATTAAGCGGATTTAAGTTTGCGGAGTCACCTAGTGCAG	9600 fluorescence intensity (a.u.)
TCCCCGTTACCGAGCGCCGCCGCCTCCGCCTCCACCTCTACGGAGTCACCTAGTGCAG	10100 fluorescence intensity (a.u.)
ATACTGTTTCTTGTCGATCTATTGTCAATTTGTCATAGTACGGAGTCACCTAGTGCAG	8510 fluorescence intensity (a.u.)
ATGTTTGCGCTGTAAGATATTCCTTCTGTTTTAAAATATACGGAGTCACCTAGTGCAG	9910 fluorescence intensity (a.u.)

Individual results from the list.
AGCACCACTCATCCAGCTTCCAGCCGCCTTCGCGCACCACCGGAGTCACCTAGTGCAG – binding signal: 10900 fluorescence intensity (a.u.)
ATGTTTGCGCTGTAAGATATTCCTTCTGTTTTAAAATATACGGAGTCACCTAGTGCAG – binding signal: 9910 fluorescence intensity (a.u.)
